# Earlier results in patent US5525347A, “Composition and methods for treating performance anxiety” (Medical University of South Carolina, priority 1995, dated 1996).
compound,measurement,setting,value
"C[N+]1(C)CCC(OC(=O)C(O)(c2ccccc2)C2CCCC2)C1 (centres unmarked) [Glycopyrrolate, 3-Hydroxyl-1,1-dimethylpyrrolidinum bromide-cyclopentylmandelate]",stability to heat,heat,stabile in light and heat
same,stability in light,light,stabile in light and heat
